Measurements from the supplement of paper PMC12823440, “Inhibitors supercharge kinase turnover through native proteolytic circuits” (Nature, 2025).
Where a name gives a salt, the structure may show the parent alone. Some of the results follow. The calls rarely recur for the same compound in another form.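 In K562 cells expressing nanoluciferase-fused kinases, luminescence was recorded at 4 h intervals between 2 and 18 h, normalized as percent of control with DMSO at 100% and a positive control at 0%. A significant (2 sigma) signal drop marks a time point as decreased. The authors' rule for a hit is not shown and takes in more than the number of time points.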

Chains of the proteins cited; added tags and fusions are not shown. Lines headed by an entry give the natural chain unless they say otherwise; changes in a name come on top.
UniProt P51813: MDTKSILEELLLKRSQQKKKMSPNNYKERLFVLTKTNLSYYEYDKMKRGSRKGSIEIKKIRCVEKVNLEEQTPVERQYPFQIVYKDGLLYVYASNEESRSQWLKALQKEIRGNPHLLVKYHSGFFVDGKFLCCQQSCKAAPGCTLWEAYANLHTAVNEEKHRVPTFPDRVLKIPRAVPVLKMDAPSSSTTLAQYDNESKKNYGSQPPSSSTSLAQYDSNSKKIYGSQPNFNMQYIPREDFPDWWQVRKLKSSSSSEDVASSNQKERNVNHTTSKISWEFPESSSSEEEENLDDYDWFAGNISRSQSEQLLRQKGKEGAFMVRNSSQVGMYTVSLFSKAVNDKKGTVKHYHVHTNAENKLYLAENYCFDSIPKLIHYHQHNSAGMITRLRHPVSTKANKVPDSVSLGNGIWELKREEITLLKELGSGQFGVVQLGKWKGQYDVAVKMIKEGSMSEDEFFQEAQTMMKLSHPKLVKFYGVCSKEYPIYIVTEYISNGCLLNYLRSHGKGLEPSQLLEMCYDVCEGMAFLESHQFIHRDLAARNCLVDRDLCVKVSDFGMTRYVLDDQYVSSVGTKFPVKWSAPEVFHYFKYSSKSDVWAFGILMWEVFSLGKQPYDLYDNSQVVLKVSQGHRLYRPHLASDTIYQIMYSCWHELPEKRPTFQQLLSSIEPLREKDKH

Target: BMX (UniProt P51813)
Experiment: number of time points (of 5) at which kinase-Nluc abundance scored as decreased, DMSO-normalised (count); higher = more persistent destabilization
Conditions: K562; 2-18 h

SMILES | number of time points
N#Cc1cnc2c(Cl)cc(NCc3cn(CCN4CCCCCC4)nn3)cc2c1Nc1ccc(F)c(Cl)c1 [Cot inhibitor-1] (10 µM) | 0
Cc1cc(Nc2cc(N)ncn2)c(=O)n2c1C(=O)NC21CCCCC1 [Tomivosertib] (10 µM) | 0
CC(Cc1ccc(O)c(O)c1)C(C)Cc1ccc(O)c(O)c1 (configuration not stated) [Nordihydroguaiaretic acid] (2.5 µM) | 0
CNC(=O)c1ccc2c(C(=Nc3cccc(CN(C)C)c3)c3ccccc3)c(O)[nH]c2c1 [MEK inhibitor] (10 µM) | 0
COC(=O)[C@H](CCSC)NC(=O)c1ccc(NC[C@@H](N)CS)cc1-c1ccccc1 [FTI-277 (hydrochloride)] (10 µM) | 0
C=CC(=O)Nc1ccc(C(=O)Nc2[nH]nc3c2CN(C(=O)N[C@H](CN(C)C)c2ccccc2)C3(C)C)cc1 (10 µM) | 2
CCN(CC)CCCC(C)Nc1nc(C)cc(Nc2ccc3nc(C)cc(N)c3c2)n1 (configuration not stated) (10 µM) | 0
COc1cc(F)ccc1-c1ncnc(Nc2cccc(C[S@](C)(=N)=O)c2)n1 [Atuveciclib] (2.5 µM) | 3
O=C(c1cccc(Cl)c1F)N1CCN(Cc2cccc(Nc3nccs3)n2)CC1 (2.5 µM) | 0
N#Cc1ccc(-c2cnc3ccc(-c4ccc(C(=O)N5CCOCC5)cc4)cn23)cc1 (10 µM) | 0
Cc1ccc(C(=O)NC2CC2)cc1-n1ncc(C(=O)c2cccc(C#N)c2)c1N [Acumapimod] (10 µM) | 0
N#Cc1ccc(-c2cnc3[nH]cc(NC(=O)c4cccnc4)c3c2)cc1 (10 µM) | 0

3 compounds out of the list, sorted by molecular weight, ascending:
SMILES | number of time points
CC(Cc1ccc(O)c(O)c1)C(C)Cc1ccc(O)c(O)c1 (configuration not stated) [Nordihydroguaiaretic acid] (2.5 µM) | 0
Cc1cc(Nc2cc(N)ncn2)c(=O)n2c1C(=O)NC21CCCCC1 [Tomivosertib] (10 µM) | 0
N#Cc1cnc2c(Cl)cc(NCc3cn(CCN4CCCCCC4)nn3)cc2c1Nc1ccc(F)c(Cl)c1 [Cot inhibitor-1] (10 µM) | 0
